Structures can show the parent of a compound that is named as a salt. The list shows a part of the results. Hit calls seldom repeat between salt and free forms of one compound.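 Kinases, fused to nanoluciferase, were expressed in K562 cells; luminescence was measured every 4 h from 2 to 18 h as percent of control (DMSO = 100%, positive control = 0%). A time point is decreased if signal falls significantly (2 sigma). Hits were called by the authors by a rule that is not shown; the count of time points alone does not decide it.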
Legend:
Assay in all cases: kinase-Nluc reporter destabilization hit call (1 = scored as downregulated) (binary); higher = compound decreases kinase abundance
Details in all cases: K562; 2-18 h
EGFR = EGFR (UniProt P00533)
EGFR_G719S = EGFR_G719S (UniProt P00533)
EGFR_G719S_T790M = EGFR_G719S_T790M (UniProt P00533)
EGFR_L718V = EGFR_L718V (UniProt P00533)
EGFR_L858R = EGFR_L858R (UniProt P00533)
EGFR_L861Q = EGFR_L861Q (UniProt P00533)
EGFR_T790M = EGFR_T790M (UniProt P00533)
EPHA2 = EPHA2 (UniProt P29317)
ERBB3 = ERBB3 (UniProt P21860)
[1] = molecular target: ERBB4_R711C (clone: ERBB4_mut) (UniProt Q15303)

Protein sequences, listed by entry. Tags and fused reporters are not part of them.
UniProt P29317, whole entry: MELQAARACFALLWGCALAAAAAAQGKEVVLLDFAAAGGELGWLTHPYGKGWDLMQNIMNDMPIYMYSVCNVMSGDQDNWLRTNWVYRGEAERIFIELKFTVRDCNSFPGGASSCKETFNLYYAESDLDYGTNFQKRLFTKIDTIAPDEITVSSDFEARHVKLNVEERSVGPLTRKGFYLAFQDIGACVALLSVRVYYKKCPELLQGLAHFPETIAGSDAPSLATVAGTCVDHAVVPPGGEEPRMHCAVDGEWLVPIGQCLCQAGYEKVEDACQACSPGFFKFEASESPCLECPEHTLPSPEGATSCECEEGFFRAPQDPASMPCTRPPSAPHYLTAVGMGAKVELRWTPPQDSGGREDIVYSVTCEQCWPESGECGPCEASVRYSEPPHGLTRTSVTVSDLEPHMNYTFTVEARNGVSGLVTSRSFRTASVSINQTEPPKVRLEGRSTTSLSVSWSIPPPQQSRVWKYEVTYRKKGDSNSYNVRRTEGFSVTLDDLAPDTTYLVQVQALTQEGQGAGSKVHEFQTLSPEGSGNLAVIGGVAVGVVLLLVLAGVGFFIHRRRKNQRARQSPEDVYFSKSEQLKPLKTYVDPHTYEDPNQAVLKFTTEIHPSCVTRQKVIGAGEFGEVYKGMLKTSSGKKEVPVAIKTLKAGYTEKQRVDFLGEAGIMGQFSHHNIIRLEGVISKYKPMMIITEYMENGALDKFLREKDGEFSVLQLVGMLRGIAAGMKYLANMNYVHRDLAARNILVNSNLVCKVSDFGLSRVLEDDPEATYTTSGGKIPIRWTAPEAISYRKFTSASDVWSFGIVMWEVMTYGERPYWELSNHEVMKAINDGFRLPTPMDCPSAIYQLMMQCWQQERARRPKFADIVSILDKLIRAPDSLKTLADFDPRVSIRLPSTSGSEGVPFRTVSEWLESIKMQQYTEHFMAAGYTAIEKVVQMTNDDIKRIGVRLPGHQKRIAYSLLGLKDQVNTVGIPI
UniProt P21860, whole entry: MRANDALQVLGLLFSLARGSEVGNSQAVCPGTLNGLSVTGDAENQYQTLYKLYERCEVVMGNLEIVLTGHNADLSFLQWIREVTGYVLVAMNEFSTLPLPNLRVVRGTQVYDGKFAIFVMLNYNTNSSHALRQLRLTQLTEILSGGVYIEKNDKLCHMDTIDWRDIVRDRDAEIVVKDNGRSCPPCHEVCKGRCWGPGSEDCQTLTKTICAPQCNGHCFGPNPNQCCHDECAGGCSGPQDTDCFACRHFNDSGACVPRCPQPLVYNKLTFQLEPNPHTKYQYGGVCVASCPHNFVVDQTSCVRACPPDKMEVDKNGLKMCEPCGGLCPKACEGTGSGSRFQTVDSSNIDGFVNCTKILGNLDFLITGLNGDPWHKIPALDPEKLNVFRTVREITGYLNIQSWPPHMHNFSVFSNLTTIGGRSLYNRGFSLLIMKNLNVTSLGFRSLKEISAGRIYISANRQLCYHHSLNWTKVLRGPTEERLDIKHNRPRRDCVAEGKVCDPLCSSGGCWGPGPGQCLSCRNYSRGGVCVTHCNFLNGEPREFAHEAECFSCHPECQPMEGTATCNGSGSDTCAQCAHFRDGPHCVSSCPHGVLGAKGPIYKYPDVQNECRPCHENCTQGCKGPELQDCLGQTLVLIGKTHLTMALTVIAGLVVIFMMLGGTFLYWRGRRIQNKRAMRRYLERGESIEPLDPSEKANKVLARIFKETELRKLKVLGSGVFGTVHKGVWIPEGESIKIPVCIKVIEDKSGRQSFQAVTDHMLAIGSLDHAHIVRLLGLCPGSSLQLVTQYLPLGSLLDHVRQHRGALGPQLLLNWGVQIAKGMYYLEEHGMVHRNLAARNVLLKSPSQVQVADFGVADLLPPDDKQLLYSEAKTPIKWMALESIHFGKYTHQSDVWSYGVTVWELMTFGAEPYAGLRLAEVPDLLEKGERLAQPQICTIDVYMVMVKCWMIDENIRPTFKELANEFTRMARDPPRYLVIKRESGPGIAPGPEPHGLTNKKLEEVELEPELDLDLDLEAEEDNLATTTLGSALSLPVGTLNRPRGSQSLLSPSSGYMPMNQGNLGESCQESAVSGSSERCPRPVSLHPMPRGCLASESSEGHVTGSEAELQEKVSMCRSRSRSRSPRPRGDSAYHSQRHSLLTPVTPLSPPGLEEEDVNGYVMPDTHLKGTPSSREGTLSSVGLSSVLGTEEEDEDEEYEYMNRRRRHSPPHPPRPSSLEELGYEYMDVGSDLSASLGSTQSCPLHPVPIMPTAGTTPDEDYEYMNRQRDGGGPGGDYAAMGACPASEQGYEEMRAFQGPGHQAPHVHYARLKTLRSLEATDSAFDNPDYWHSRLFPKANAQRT
UniProt Q15303, whole entry R711C: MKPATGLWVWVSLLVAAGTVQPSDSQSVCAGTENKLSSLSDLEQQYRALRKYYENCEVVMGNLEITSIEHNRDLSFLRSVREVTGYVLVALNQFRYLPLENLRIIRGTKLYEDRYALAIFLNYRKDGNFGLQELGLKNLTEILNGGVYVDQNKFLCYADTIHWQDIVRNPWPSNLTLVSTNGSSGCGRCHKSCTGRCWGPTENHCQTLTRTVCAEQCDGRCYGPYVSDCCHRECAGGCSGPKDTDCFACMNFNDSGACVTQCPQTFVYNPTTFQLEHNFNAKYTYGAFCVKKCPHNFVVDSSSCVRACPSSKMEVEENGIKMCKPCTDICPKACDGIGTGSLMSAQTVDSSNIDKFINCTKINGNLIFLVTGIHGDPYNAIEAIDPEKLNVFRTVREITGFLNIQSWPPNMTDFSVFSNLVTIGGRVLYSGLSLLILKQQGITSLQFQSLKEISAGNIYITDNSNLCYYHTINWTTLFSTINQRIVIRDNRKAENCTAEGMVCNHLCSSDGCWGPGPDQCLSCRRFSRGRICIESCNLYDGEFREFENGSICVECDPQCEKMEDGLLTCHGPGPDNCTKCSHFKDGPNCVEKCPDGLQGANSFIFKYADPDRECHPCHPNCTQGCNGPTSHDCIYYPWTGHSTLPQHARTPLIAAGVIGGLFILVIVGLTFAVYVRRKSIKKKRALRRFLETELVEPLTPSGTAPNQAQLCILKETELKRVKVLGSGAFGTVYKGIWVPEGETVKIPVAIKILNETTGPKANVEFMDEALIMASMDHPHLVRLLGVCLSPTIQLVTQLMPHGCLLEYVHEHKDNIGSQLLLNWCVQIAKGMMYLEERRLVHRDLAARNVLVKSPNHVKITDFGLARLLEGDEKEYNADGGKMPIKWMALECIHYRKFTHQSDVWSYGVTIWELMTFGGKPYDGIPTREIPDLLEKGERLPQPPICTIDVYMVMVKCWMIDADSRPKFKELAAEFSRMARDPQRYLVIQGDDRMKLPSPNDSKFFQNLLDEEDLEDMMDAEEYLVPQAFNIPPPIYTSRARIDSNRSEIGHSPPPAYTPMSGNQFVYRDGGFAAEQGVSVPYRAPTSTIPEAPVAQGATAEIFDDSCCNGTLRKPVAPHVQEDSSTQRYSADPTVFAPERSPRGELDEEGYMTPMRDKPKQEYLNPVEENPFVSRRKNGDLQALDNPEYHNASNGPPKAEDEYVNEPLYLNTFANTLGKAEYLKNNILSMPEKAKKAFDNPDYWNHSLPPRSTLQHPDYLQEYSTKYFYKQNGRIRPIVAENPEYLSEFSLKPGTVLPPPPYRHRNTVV

Measured: kinase-Nluc reporter destabilization hit call

Cn1cnc(Cn2ccc3ccc(CNCc4[nH]c5ccccc5c4[C@H]4NC(=O)c5ccc(O)cc54)cc32)c1 (10 µM)
inactive: EGFR 0 | EGFR_G719S 0 | EGFR_G719S_T790M 0 | EGFR_L718V 0 | EGFR_L858R 0 | EGFR_L861Q 0 | EGFR_T790M 0 | EPHA2 = 0 | ERBB3 = 0 | [1] 0

NC(=O)c1nnc(N[C@@H]2CCCC[C@@H]2N)nc1Nc1cccc2cc[nH]c12 (10 µM)
inactive: EGFR 0 | EGFR_G719S 0 | EGFR_G719S_T790M 0 | EGFR_L718V 0 | EGFR_L858R 0 | EGFR_L861Q 0 | EGFR_T790M 0 | EPHA2 = 0 | ERBB3 = 0 | [1] 0

COc1cc(/C=C/C(=O)NCC(O)c2ccc(O)cc2)ccc1O (stereo not given) [N-Feruloyloctopamine] (2.5 µM)
inactive: EGFR 0 | EGFR_G719S 0 | EGFR_G719S_T790M 0 | EGFR_L718V 0 | EGFR_L858R 0 | EGFR_L861Q 0 | EGFR_T790M 0 | EPHA2 = 0 | ERBB3 = 0 | [1] 0

Cc1ccc(CNc2ncnc3ccc(-c4ccc(CO)o4)cc23)o1 (10 µM)
inactive: EGFR 0 | EGFR_G719S 0 | EGFR_G719S_T790M 0 | EGFR_L718V 0 | EGFR_L858R 0 | EGFR_L861Q 0 | EGFR_T790M 0 | EPHA2 = 0 | ERBB3 = 0 | [1] 0

C=CC(=O)Nc1cccc(Nc2nc(Nc3ccc(NC4CN(CCF)C4)cc3OC)ncc2C(F)(F)F)c1 (2.5 µM)
inactive: EGFR 0 | EGFR_G719S 0 | EGFR_G719S_T790M 0 | EGFR_L718V 0 | EGFR_L858R 0 | EGFR_L861Q 0 | EGFR_T790M 0 | EPHA2 = 0 | ERBB3 = 0 | [1] 0

CCN1CCC(n2cc(CNc3cc(Cl)c4ncc(C#N)c(Nc5ccc(F)c(Cl)c5)c4c3)nn2)CC1 [Cot inhibitor-2] (2.5 µM)
inactive: EGFR 0 | EGFR_G719S 0 | EGFR_G719S_T790M 0 | EGFR_L718V 0 | EGFR_L858R 0 | EGFR_L861Q 0 | EGFR_T790M 0 | EPHA2 = 0 | ERBB3 = 0 | [1] 0

Cc1[nH]c(/C=C2\C(=O)Nc3ccc(F)cc32)c(C)c1C(=O)N[C@H]1CCN(C(=O)N(C)C)C1 [Vorolanib] (10 µM)
inactive: EGFR 0 | EGFR_G719S 0 | EGFR_G719S_T790M 0 | EGFR_L718V 0 | EGFR_L858R 0 | EGFR_L861Q 0 | EGFR_T790M 0 | EPHA2 = 0 | ERBB3 = 0 | [1] 0

Cc1c(-c2c(F)cc(C(N)=O)c3[nH]c4c(c23)CC[C@H](C(C)(C)O)C4)cccc1-n1c(=O)c2cccc(F)c2n(C)c1=O (2.5 µM)
inactive: EGFR 0 | EGFR_G719S 0 | EGFR_G719S_T790M 0 | EGFR_L718V 0 | EGFR_L858R 0 | EGFR_L861Q 0 | EGFR_T790M 0 | EPHA2 = 0 | ERBB3 = 0 | [1] 0

Nc1ncnc2c1c(-c1ccc(Oc3ccccc3)cc1)nn2C1CCCC1 (2.5 µM)
inactive: EGFR 0 | EGFR_G719S 0 | EGFR_G719S_T790M 0 | EGFR_L718V 0 | EGFR_L858R 0 | EGFR_L861Q 0 | EGFR_T790M 0 | EPHA2 = 0 | ERBB3 = 0 | [1] 0

Oc1ccc(Nc2nc(-c3ccc(Cl)cc3)cs2)cc1 (10 µM)
inactive: EGFR 0 | EGFR_G719S 0 | EGFR_G719S_T790M 0 | EGFR_L718V 0 | EGFR_L858R 0 | EGFR_L861Q 0 | EGFR_T790M 0 | EPHA2 = 0 | ERBB3 = 0 | [1] 0

c1ccc(-c2[nH]ncc2-c2ccnc3ccccc23)nc1 (10 µM)
inactive: EGFR 0 | EGFR_G719S 0 | EGFR_G719S_T790M 0 | EGFR_L718V 0 | EGFR_L858R 0 | EGFR_L861Q 0 | EGFR_T790M 0 | EPHA2 = 0 | ERBB3 = 0 | [1] 0

O=C(Nc1cn[nH]c1-c1ccccn1)c1nn(C2CCNCC2)cc1Cl (10 µM)
inactive: EGFR 0 | EGFR_G719S 0 | EGFR_G719S_T790M 0 | EGFR_L718V 0 | EGFR_L858R 0 | EGFR_L861Q 0 | EGFR_T790M 0 | EPHA2 = 0 | ERBB3 = 0 | [1] 0

O=C1N[C@@H](Cc2c[nH]c3ccccc23)C(=O)N2CCC[C@@H]12 [Brevianamide F] (10 µM)
inactive: EGFR 0 | EGFR_G719S 0 | EGFR_G719S_T790M 0 | EGFR_L718V 0 | EGFR_L858R 0 | EGFR_L861Q 0 | EGFR_T790M 0 | EPHA2 = 0 | ERBB3 = 0 | [1] 0

O=Nc1c(-c2c(O)[nH]c3ccc(F)cc23)[nH]c2ccccc12 [5'-Fluoroindirubinoxime] (10 µM)
inactive: EGFR 0 | EGFR_G719S 0 | EGFR_G719S_T790M 0 | EGFR_L718V 0 | EGFR_L858R 0 | EGFR_L861Q 0 | EGFR_T790M 0 | EPHA2 = 0 | ERBB3 = 0 | [1] 0

COc1ccccc1-c1cc(Nc2cccc(CS(N)(=O)=O)c2)ncn1 (10 µM)
inactive: EGFR 0 | EGFR_G719S 0 | EGFR_G719S_T790M 0 | EGFR_L718V 0 | EGFR_L858R 0 | EGFR_L861Q 0 | EGFR_T790M 0 | EPHA2 = 0 | ERBB3 = 0 | [1] 0

Cc1cc(Nc2ncnc3ccc(NC4=NC(C)(C)CO4)cc23)ccc1Oc1ccn2ncnc2c1 [Tucatinib (hemiethanolate)] (2.5 µM)
inactive: EGFR 0 | EGFR_G719S 0 | EGFR_G719S_T790M 0 | EGFR_L718V 0 | EGFR_L858R 0 | EGFR_L861Q 0 | EGFR_T790M 0 | EPHA2 = 0 | ERBB3 = 0 | [1] 0

O=C(N/N=C/c1coc2ccccc2c1=O)c1cccnc1 (10 µM)
inactive: EGFR 0 | EGFR_G719S 0 | EGFR_G719S_T790M 0 | EGFR_L718V 0 | EGFR_L858R 0 | EGFR_L861Q 0 | EGFR_T790M 0 | EPHA2 = 0 | ERBB3 = 0 | [1] 0

CC1CCc2c(cc(Br)c(F)c2Br)N1C=O (stereo not given) (10 µM)
inactive: EGFR 0 | EGFR_G719S 0 | EGFR_G719S_T790M 0 | EGFR_L718V 0 | EGFR_L858R 0 | EGFR_L861Q 0 | EGFR_T790M 0 | EPHA2 = 0 | ERBB3 = 0 | [1] 0

NC(=O)c1ccc2[nH]ccc2c1 (10 µM)
inactive: EGFR 0 | EGFR_G719S 0 | EGFR_G719S_T790M 0 | EGFR_L718V 0 | EGFR_L858R 0 | EGFR_L861Q 0 | EGFR_T790M 0 | EPHA2 = 0 | ERBB3 = 0 | [1] 0

Cn1cc(-c2ccc3c(c2)CCN3C(=O)Cc2cccc(C(F)(F)F)c2)c2c(N)ncnc21 (2.5 µM)
inactive: EGFR 0 | EGFR_G719S 0 | EGFR_G719S_T790M 0 | EGFR_L718V 0 | EGFR_L858R 0 | EGFR_L861Q 0 | EGFR_T790M 0 | EPHA2 = 0 | ERBB3 = 0 | [1] 0

O=Nc1c(-c2c(O)[nH]c3ccc(I)cc23)[nH]c2ccccc12 [5-Iodo-indirubin-3'-monoxime] (10 µM)
inactive: EGFR 0 | EGFR_G719S 0 | EGFR_G719S_T790M 0 | EGFR_L718V 0 | EGFR_L858R 0 | EGFR_L861Q 0 | EGFR_T790M 0 | EPHA2 = 0 | ERBB3 = 0 | [1] 0

CN(CC(=O)N(Cc1ccc(C2CCCCC2)cc1)c1ccc(C(=O)NO)cc1)S(=O)(=O)c1c(F)c(F)c(F)c(F)c1F (2.5 µM)
inactive: EGFR 0 | EGFR_G719S 0 | EGFR_G719S_T790M 0 | EGFR_L718V 0 | EGFR_L858R 0 | EGFR_L861Q 0 | EGFR_T790M 0 | EPHA2 = 0 | ERBB3 = 0 | [1] 0

COc1cc(Nc2ncc(F)c(Nc3ccc4c(n3)N(COP(=O)(O)O)C(=O)C(C)(C)O4)n2)cc(OC)c1OC [Fostamatinib (disodium hexahydrate)] (10 µM)
inactive: EGFR 0 | EGFR_G719S 0 | EGFR_G719S_T790M 0 | EGFR_L718V 0 | EGFR_L858R 0 | EGFR_L861Q 0 | EGFR_T790M 0 | EPHA2 = 0 | ERBB3 = 0 | [1] 0

COc1cc2c(cc1OC)CN(S(=O)(=O)c1ccc(OC)c(N3CCN(C(=O)c4ccc(F)cc4C(F)(F)F)CC3)c1)CC2 (10 µM)
inactive: EGFR 0 | EGFR_G719S 0 | EGFR_G719S_T790M 0 | EGFR_L718V 0 | EGFR_L858R 0 | EGFR_L861Q 0 | EGFR_T790M 0 | EPHA2 = 0 | ERBB3 = 0 | [1] 0

Cc1ccc(OCCSc2ncccn2)c(Br)c1 [ZLN024 (hydrochloride)] (10 µM)
inactive: EGFR 0 | EGFR_G719S 0 | EGFR_G719S_T790M 0 | EGFR_L718V 0 | EGFR_L858R 0 | EGFR_L861Q 0 | EGFR_T790M 0 | EPHA2 = 0 | ERBB3 = 0 | [1] 0

Cc1ccccc1-c1c2nccc(-c3ccc(F)cc3F)c2cc[n+]1[O-] (10 µM)
inactive: EGFR 0 | EGFR_G719S 0 | EGFR_G719S_T790M 0 | EGFR_L718V 0 | EGFR_L858R 0 | EGFR_L861Q 0 | EGFR_T790M 0 | EPHA2 = 0 | ERBB3 = 0 | [1] 0

CC(C)(O)CNc1ncc(-c2ccnc(Nc3ccnc(Cl)c3)n2)c(CC2CC2)n1 (2.5 µM)
inactive: EGFR 0 | EGFR_G719S 0 | EGFR_G719S_T790M 0 | EGFR_L718V 0 | EGFR_L858R 0 | EGFR_L861Q 0 | EGFR_T790M 0 | EPHA2 = 0 | ERBB3 = 0 | [1] 0

CCS(=O)(=O)c1ncc(Cl)c(C(=O)N(Cc2ccc(Cl)cc2)Cc2ccco2)n1 (2.5 µM)
inactive: EGFR 0 | EGFR_G719S 0 | EGFR_G719S_T790M 0 | EGFR_L718V 0 | EGFR_L858R 0 | EGFR_L861Q 0 | EGFR_T790M 0 | EPHA2 = 0 | ERBB3 = 0 | [1] 0

Cc1cc(O)c2c(c1)C(=O)c1cc(O)cc(O)c1C2=O [Emodin] (10 µM)
inactive: EGFR 0 | EGFR_G719S 0 | EGFR_G719S_T790M 0 | EGFR_L718V 0 | EGFR_L858R 0 | EGFR_L861Q 0 | EGFR_T790M 0 | EPHA2 = 0 | ERBB3 = 0 | [1] 0

Source: the supplement of paper PMC12823440, “Inhibitors supercharge kinase turnover through native proteolytic circuits” (Nature, 2025)
